Several values for one entry are separate records, joined by “and”; a condition that tells them apart may be missing. Equal values may be shown once. Where a name gives a salt, the structure may show the parent alone. ± gives the standard deviation of the averaged measurements. Some of the results follow. Many values rest on one well or one pass, so single values are uncertain.
Test system: RAW 264.7
Experiment: cell viability (MTT) relative to vehicle control; higher = more viable cells
Conditions: stimulus: HMGB1 5 ug/ml, 18 h
[1] = compound concentration: 1 ug/ml

Compound `CC(=O)[C@H]1CC[C@H]2[C@@H]3CC=C4C[C@@H](OS(=O)(=O)O)CC[C@]4(C)[C@H]3CC[C@]12C` [Pregnenolone sulfate sodium] has a cell viability (compound concentration: 3 uM) of 106%.

With `Cc1cc(=O)n(-c2ccccc2)n1C` the cell viability (compound concentration: 3 uM) was 100%.

`Cc1cc(=O)n(-c2ccccc2)n1C` [Antipyrine] showed a cell viability (compound concentration: 3 uM) of 97.7%.

With `NCC=CC(=O)O` (stereo in doubt) [cis-4-Aminocrotonic acid] the cell viability (compound concentration: 3 uM) was 111%.

Compound `Clc1ccc(COC(Cn2ccnc2)c2ccc(Cl)cc2Cl)c(Cl)c1` (stereo not drawn) has a cell viability (compound concentration: 3 uM) of 108%.

Compound `Clc1ccc(COC(Cn2ccnc2)c2ccc(Cl)cc2Cl)c(Cl)c1` (stereo not drawn) [Miconazole] has a cell viability (compound concentration: 3 uM) of 98 ± 9.8%.

For `NCCCCNCCCN` [Spermidine trihydrochloride], the cell viability (compound concentration: 3 uM) was 122%.

In the case of `CC(C)(C(=O)c1cccnc1)c1cccnc1` [Metyrapone], the cell viability (compound concentration: 3 uM) is reported as 94.9%.

Compound `O=c1cc(-c2ccc(O)c(O)c2)oc2cc(O)cc(O)c12` [Luteolin] has a cell viability (compound concentration: 3 uM) of 86.6%.

In the case of `CCOC(=O)[C@]12CC1/C(=N\O)c1ccccc1O2` (stereo partly drawn), the cell viability (compound concentration: 3 uM) is reported as 102%.

`CCN[C@H]1C[C@H](C)S(=O)(=O)c2sc(S(N)(=O)=O)cc21` [Dorzolamide] gave a cell viability (compound concentration: 3 uM) of 107%.

Compound `CCN[C@H]1C[C@H](C)S(=O)(=O)c2sc(S(N)(=O)=O)cc21` [Dorzolamide hydrochloride] has a cell viability (compound concentration: 3 uM) of 101%.

Compound `CC(C)/N=c1\cc2n(-c3ccc(Cl)cc3)c3ccccc3nc-2cc1Nc1ccc(Cl)cc1` [Clofazimine] has a cell viability (compound concentration: 3 uM) of 75.7%.

Work on `CC(C)/N=c1\cc2n(-c3ccc(Cl)cc3)c3ccccc3nc-2cc1Nc1ccc(Cl)cc1` yielded a cell viability (compound concentration: 3 uM) of 95.6 ± 4%.

Work on `O=C1Cc2cc(CCN3CCN(c4nsc5ccccc45)CC3)c(Cl)cc2N1` [Ziprasidone  Hydrochloride] yielded a cell viability (compound concentration: 3 uM) of 113%.

Work on `O=C1Cc2cc(CCN3CCN(c4nsc5ccccc45)CC3)c(Cl)cc2N1` [Ziprasidone hydrochloride monohydrate] yielded a cell viability (compound concentration: 3 uM) of 108%.

Work on `CC(=O)N(O)CCCCCNC(=O)CCC(=O)N(O)CCCCCNC(=O)CCC(=O)N(O)CCCCCN` [Deferoxamine mesylate] yielded a cell viability (compound concentration: 3 uM) of 120%.

Work on `CC(=O)N(O)CCCCCNC(=O)CCC(=O)N(O)CCCCCNC(=O)CCC(=O)N(O)CCCCCN` yielded a cell viability (compound concentration: 3 uM) of 97.7%.

Work on `O=S(=O)(c1cccc2cnccc12)N1CCNCC1` yielded a cell viability (compound concentration: 3 uM) of 102%.

For `NC(Cc1cccc(-c2ccccc2CP(=O)(O)O)c1)C(=O)O` (stereo not drawn) [Phenylbenzene-omega-phosphono-alpha-amino acid], the cell viability (compound concentration: 3 uM) was 97.6%.

`N[C@H](CO)C(=O)O` [D-Serine] showed a cell viability (compound concentration: 3 uM) of 117%.

`CC(C)NC[C@H](O)COc1ccc(CC(N)=O)cc1` [S(-)-Atenolol] was tested, and the cell viability (compound concentration: 3 uM) was 94.8%.

`CC(C)NC[C@H](O)COc1ccc(CC(N)=O)cc1` [(S)-(-)-Atenolol] gave a cell viability (compound concentration: 3 uM) of 76.7%.

Work on `c1cnc2c(c1)ccc1cccnc12` [1,10-Phenanthroline monohydrate] yielded a cell viability (compound concentration: 3 uM) of 85.6%.

Compound `CCOC(=O)C(C)(C)Oc1ccc(Cl)cc1` [Clofibrate] has a cell viability (compound concentration: 3 uM) of 93.7 ± 12%.

In the case of `CCOC(=O)C(C)(C)Oc1ccc(Cl)cc1`, the cell viability (compound concentration: 3 uM) is reported as 98.1%.

With `CCC(=O)Oc1cc2c(C)cc(=O)oc2cc1Cl` the cell viability [1] was 91.8%.

For `C[C@@H]1[C@H](O)[C@@H](C)/C=C/C=C/C=C/C=C/C=C/C=C/C=C/[C@H](O[C@@H]2O[C@H](C)[C@@H](O)[C@H](N)[C@@H]2O)C[C@@H]2O[C@](O)(C[C@@H](O)C[C@@H](O)[C@H](O)CC[C@@H](O)C[C@@H](O)CC(=O)O[C@H]1C)C[C@H](O)[C@H]2C(=O)O` [Amphotericin B], the cell viability (compound concentration: 3 uM) was 132%.

`C[C@@H]1[C@H](O)[C@@H](C)/C=C/C=C/C=C/C=C/C=C/C=C/C=C/[C@H](O[C@@H]2O[C@H](C)[C@@H](O)[C@H](N)[C@@H]2O)C[C@@H]2O[C@](O)(C[C@@H](O)C[C@@H](O)[C@H](O)CC[C@@H](O)C[C@@H](O)CC(=O)O[C@H]1C)C[C@H](O)[C@H]2C(=O)O` was tested, and the cell viability (compound concentration: 3 uM) was 105 ± 7.9%.

Compound `CO[C@@]1(NC(=O)CSCC#N)C(=O)N2C(C(=O)O)=C(CSc3nnnn3C)CS[C@@H]21` has a cell viability (compound concentration: 3 uM) of 102%.

Work on `CO[C@@]1(NC(=O)CSCC#N)C(=O)N2C(C(=O)O)=C(CSc3nnnn3C)CS[C@@H]21` [Cefmetazole sodium salt] yielded a cell viability (compound concentration: 3 uM) of 102%.

`CO[C@@]1(NC(=O)CSCC#N)C(=O)N2C(C(=O)O)=C(CSc3nnnn3C)CS[C@@H]21` [Cefmetazole sodium] gave a cell viability (compound concentration: 3 uM) of 112%.

With `C[C@]12CC[C@@H]3c4ccc(O)cc4CC[C@H]3[C@@H]1CC[C@@H]2OC(=O)CCC1CCCC1` the cell viability (compound concentration: 3 uM) was 103%.

`C[C@]12CC[C@@H]3c4ccc(O)cc4CC[C@H]3[C@@H]1CC[C@@H]2OC(=O)CCC1CCCC1` [beta-estradiol 17-cypionate] showed a cell viability [1] of 105%.

Compound `O=C1C=C2CC3(O)COc4c(ccc(O)c4O)C3=C2C=C1O` (stereo not drawn) [Hematein] has a cell viability [1] of 109%.

In the case of `CN1CCc2cccc3c2[C@H]1Cc1ccc(O)c(O)c1-3` [Apomorphine R (-)], the cell viability (compound concentration: 3 uM) is reported as 117%.

`CN1CCc2cccc3c2[C@H]1Cc1ccc(O)c(O)c1-3` [R(-) Apomorphine hydrochloride hemihydrate] gave a cell viability (compound concentration: 3 uM) of 104%.

`CN1CCc2cccc3c2[C@H]1Cc1ccc(O)c(O)c1-3` showed a cell viability (compound concentration: 3 uM) of 107%.

In the case of `CN1CCc2cccc3c2[C@H]1Cc1ccc(O)c(O)c1-3` [Apomorphine hydrochloride hemihydrate], the cell viability (compound concentration: 3 uM) is reported as 103%.

For `CCC(Cc1c(I)cc(I)c(N)c1I)C(=O)O` (stereo not drawn) [Iopanoic acid], the cell viability (compound concentration: 3 uM) was 91.3%.

Compound `CCC(Cc1c(I)cc(I)c(N)c1I)C(=O)O` (stereo not drawn) has a cell viability (compound concentration: 3 uM) of 106%.

`CCC(NC(C)C)C(O)c1ccc(O)c(O)c1` (stereo not drawn) [Isotharine mesylate] gave a cell viability (compound concentration: 3 uM) of 89.3%.

`CCC(NC(C)C)C(O)c1ccc(O)c(O)c1` (stereo not drawn) [Isoetharine mesylate salt] gave a cell viability (compound concentration: 3 uM) of 116%.

In the case of `CCC(NC(C)C)C(O)c1ccc(O)c(O)c1` (stereo not drawn), the cell viability (compound concentration: 3 uM) is reported as 90.5%.

Work on `O.O.O.O.O=C([O-])CC(O)(CC(=O)[O-])C(=O)[O-].[Li+].[Li+].[Li+]` yielded a cell viability (compound concentration: 3 uM) of 103%.

With `N#CC(c1ccc(Cl)cc1)c1c(Cl)cc(-n2ncc(=O)[nH]c2=O)cc1Cl` (stereo not drawn) [Diclazuril] the cell viability (compound concentration: 3 uM) was 89.8 ± 5%.

For `O=c1ccc2ccc(O)c(O)c2o1` [Daphnetin], the cell viability (compound concentration: 3 uM) was 110%.

Compound `CC(=O)NCCc1c[nH]c2ccc(O)cc12` [N-Acetyl-5-hydroxytryptamine] has a cell viability (compound concentration: 3 uM) of 101%.

With `COc1cc(OC)c(C(=O)CCCN2CCCC2)c(OC)c1` [Buflomedil hydrochloride] the cell viability (compound concentration: 3 uM) was 122%.

Compound `COc1cc(OC)c(C(=O)CCCN2CCCC2)c(OC)c1` has a cell viability (compound concentration: 3 uM) of 99.4 ± 2.5%.

With `CCCN(CCC)C(=O)C(CCC(=O)O)NC(=O)c1ccccc1` (stereo not drawn) the cell viability (compound concentration: 3 uM) was 114%.

With `CCCN(CCC)C(=O)C(CCC(=O)O)NC(=O)c1ccccc1` (stereo not drawn) [Proglumide] the cell viability (compound concentration: 3 uM) was 114 ± 2.5%.

In the case of `CC[C@H](CC[C@@H](C)[C@H]1CC[C@H]2[C@@H]3CC=C4C[C@@H](O)CC[C@]4(C)[C@H]3CC[C@]12C)C(C)C` [beta-Sitosterol], the cell viability [1] is reported as 108%.

Compound `COC(=O)c1ccccc1O` [Methyl salicylate] has a cell viability (compound concentration: 3 uM) of 119%.

Compound `COc1ccc2c(c1)N(C[C@H](C)CN(C)C)c1ccccc1S2` [Methotrimeprazine maleat salt] has a cell viability (compound concentration: 3 uM) of 102%.

In the case of `CC1(C)O[C@@H]2[C@H](O1)[C@@H](CO)O[C@H]2n1ccc(=O)[nH]c1=O` [2',3'-O-Isopropylideneuridine], the cell viability [1] is reported as 98.5%.

Compound `CN1CCC(=C2c3ccccc3CC(=O)c3sccc32)CC1` [Ketotifen fumarate] has a cell viability (compound concentration: 3 uM) of 91.9 ± 5.2%.

`CN1CCC(=C2c3ccccc3CC(=O)c3sccc32)CC1` [Ketotifen] showed a cell viability (compound concentration: 3 uM) of 111%.

Compound `CN1CCC(=C2c3ccccc3CC(=O)c3sccc32)CC1` has a cell viability (compound concentration: 3 uM) of 96.2 ± 6.3%.

For `CN1CCCC(CC2c3ccccc3Sc3ccccc32)C1` (stereo not drawn) [Metixene hydrochloride], the cell viability (compound concentration: 3 uM) was 89.5%.

With `COc1ccccc1N1CCN(CC(O)COc2cccc3ccccc23)CC1` (stereo not drawn) the cell viability (compound concentration: 3 uM) was 88.7% and 107%.

Compound `COc1ccccc1N1CCN(CC(O)COc2cccc3ccccc23)CC1` (stereo not drawn) [Naftopidil] has a cell viability (compound concentration: 3 uM) of 114%.

`COc1ccccc1N1CCN(CC(O)COc2cccc3ccccc23)CC1` (stereo not drawn) [Naftopidil dihydrochloride] gave a cell viability (compound concentration: 3 uM) of 104 ± 4.1%.

`CCN1C(=O)NC(c2ccccc2)C1=O` (stereo not drawn) [Ethotoin] showed a cell viability (compound concentration: 3 uM) of 108%.

With `Cc1cc2c(C(C)C)c(O)c(O)c(C=Nc3ccc(O)c(Cl)c3)c2c(O)c1-c1c(C)cc2c(C(C)C)c(O)c(O)c(C=Nc3ccc(O)c(Cl)c3)c2c1O` the cell viability [1] was 103%.

`CC(C)(Sc1cc(C(C)(C)C)c(O)c(C(C)(C)C)c1)Sc1cc(C(C)(C)C)c(O)c(C(C)(C)C)c1` showed a cell viability (compound concentration: 3 uM) of 117%.

`CC(C)(Sc1cc(C(C)(C)C)c(O)c(C(C)(C)C)c1)Sc1cc(C(C)(C)C)c(O)c(C(C)(C)C)c1` [Probucol] showed a cell viability (compound concentration: 3 uM) of 106%.

In the case of `CN1CCc2ccccc2Cc2[nH]c3ccccc3c2CC1`, the cell viability (compound concentration: 3 uM) is reported as 97.8%.

With `Nc1c(Br)cc(Br)cc1CN[C@H]1CC[C@H](O)CC1` [Ambroxol hydrochloride] the cell viability (compound concentration: 3 uM) was 93.3%.

With `Nc1c(Br)cc(Br)cc1CN[C@H]1CC[C@H](O)CC1` the cell viability (compound concentration: 3 uM) was 112%.

In the case of `Nc1c(Br)cc(Br)cc1CN[C@H]1CC[C@H](O)CC1` [Ambroxol], the cell viability (compound concentration: 3 uM) is reported as 115%.

For `Oc1ccc(Cl)c2cccnc12`, the cell viability (compound concentration: 3 uM) was 101%.

`Cn1ccnc1S` [Methimazole] showed a cell viability (compound concentration: 3 uM) of 112 ± 30%.

Compound `Cn1ccnc1S` has a cell viability (compound concentration: 3 uM) of 111 ± 2.7%.

`CS(=O)(=O)CCNCc1ccc(-c2ccc3ncnc(Nc4ccc(OCc5cccc(F)c5)c(Cl)c4)c3c2)o1` [Lapatinib] gave a cell viability (compound concentration: 3 uM) of 131%.

`CS(=O)(=O)CCNCc1ccc(-c2ccc3ncnc(Nc4ccc(OCc5cccc(F)c5)c(Cl)c4)c3c2)o1` [Lapatinib ditosylate] was tested, and the cell viability (compound concentration: 3 uM) was 116%.

`Nc1ccc(-c2nc3ccc(-c4nc5ccc(N)cc5[nH]4)cc3[nH]2)cc1` gave a cell viability (compound concentration: 3 uM) of 100%.

For `CC(C)(Oc1ccc(Cl)cc1)C(=O)O` [Clofibric acid], the cell viability (compound concentration: 3 uM) was 135%.

With `CC(C)(Oc1ccc(Cl)cc1)C(=O)O` the cell viability (compound concentration: 3 uM) was 117%.

`CN1CCCN=C1COC(=O)C(O)(c1ccccc1)C1CCCCC1` (stereo not drawn) gave a cell viability (compound concentration: 3 uM) of 111%.

Work on `CN(C)CC/C=C1\c2ccccc2CSc2ccccc21` [Dosulepin hydrochloride] yielded a cell viability (compound concentration: 3 uM) of 109%.

With `N[C@@H](Cn1ccc(=O)c(O)c1)C(=O)O` [L-Mimosine] the cell viability [1] was 98.6%.

`N[C@@H](Cn1ccc(=O)c(O)c1)C(=O)O` [L-Mimosine from Koa hoale seeds] was tested, and the cell viability (compound concentration: 3 uM) was 108%.

From the supplement of paper PMC3682954
